# Assay results published in PubChem BioAssay AID1665 (Sanford-Burnham Center for Chemical Genomics, 2009).
# Some of the results follow. Some salts and complexes are drawn in separate pieces, as the source files them; their charges need not balance.
# Experiment: beta-catenin nuclear localization change in HeLa – imaging, HeLa cells, immunofluorescence, high-content, primary screen (AID 1665)
# Settings: HeLa beta-catenin nuclear translocation, measured here: cell count, cytotoxicity flag, at 5 µM
row,SMILES,cell count [cells]
1,O=c1c2cc([N+](=O)[O-])ccc2[nH]c2c([N+](=O)[O-])cc([N+](=O)[O-])cc12,596
2,CCCCCOc1ccc(NP(C)(=O)Oc2ccc(Cl)cc2Cl)cc1 (centres undefined),1330
3,Cc1ccccc1OP(=O)(Nc1ccccn1)Oc1ccccc1C,1320
4,CP(=O)(Nc1ccccc1)Oc1ccc(F)cc1 (centres undefined),1370
5,CCN(CC)CCCOC(=O)C(O)(c1ccccc1)C1CCCCC1 (centres undefined),535
6,Cc1ccc(OP(=O)(Nc2ccccn2)Oc2ccc(C)cc2)cc1,1050
7,CC(=O)NC(SC(=S)N(CC(C)C)CC(C)C)C(Cl)(Cl)Cl (centres undefined),580
8,COC(=O)c1cc2c(s1)N=C(c1ccccc1)N(C)P2(=O)N1CCOCC1 (centres undefined),1440
9,COc1ccc(OP(C)(=O)Nc2ccc(SC(F)(F)F)cc2)cc1 (centres undefined),1100
10,CCOC(=O)c1ccc(NP(C)(=O)Oc2ccc(F)cc2)cc1 (centres undefined),477
11,CCOC(=O)NC(Sc1ccccc1)C(Cl)(Cl)Cl (centres undefined),1330
12,Cc1ccc(NP(=O)(Oc2cccc(C)c2)Oc2cccc(C)c2)nc1,1350
13,c1ccc(-c2nn[nH]n2)c(-c2nn[nH]n2)c1,1100
14,O=C(NC1CCS(=O)(=O)C1)NP(=S)(Oc1ccccc1)Oc1ccccc1 (centres undefined),1040
15,CCNC(=S)/N=C(\N)N[N+](=O)[O-],1480
16,CC(=O)Nc1ccc(Oc2c([N+](=O)[O-])cc([N+](=O)[O-])cc2[N+](=O)[O-])cc1,1150
17,COc1ccc2c(c1O)-c1c(O)c(OC)cc3c1[C@H](C2)[N+](C)(C)CC3.O=[N+]([O-])c1cc([N+](=O)[O-])c([O-])c([N+](=O)[O-])c1[O-],1110
18,CC(=O)Nc1ccc([As](=O)(O)O)c(O)c1,1140
19,C[C@@H]1C=CCP(=O)(Oc2ccccc2)O1 (some centres undefined),1210
20,C[C@H]1OP(=O)(Oc2ccccc2)C[C@@H]2O[C@@H]21 (some centres undefined),1170

row,SMILES,cell count [cells]
1,O=C(OCCN1CCN(CCOCc2ccccc2)CC1)C(O)(c1ccccc1)c1ccccc1,995
2,O=C(OC1CN2CCC1CC2)c1ccc([N+](=O)[O-])cc1 (centres undefined),967
3,CC(C)c1ccc(OP(C)(=O)Nc2ccc(SC(F)(F)F)cc2)cc1 (centres undefined),1020
4,CC(C)(C)C(=O)NC(Sc1ccccc1)C(Cl)(Cl)Cl (centres undefined),1160
5,CP(=O)(Nc1ccccc1F)Oc1ccccc1 (centres undefined),1020
6,CCOc1ccc(C2=NCC(CBr)S2)cc1 (centres undefined),969
7,O=P1(Nc2nc3ccc(Cl)cc3s2)COc2ccccc2O1 (centres undefined),1240
8,Cc1ccccc1NP(C)(=O)Nc1ccccc1C,826
9,CP(=O)(Nc1ccc2c(c1)OCCO2)Oc1ccccc1 (centres undefined),1240
10,c1nnnn1CCn1cnnn1,1200
11,CCOP(C)(=S)SCC(=O)NC(C)(CC)C(=O)O (centres undefined),998
12,O=P(Nc1nccs1)(c1ccccc1)c1ccccc1,1090
13,CC(C)C(=O)NC(Sc1ccccc1)C(Cl)(Cl)Cl (centres undefined),1120
14,CP(=O)(Nc1ccc(SC(F)(F)F)cc1)Oc1ccc(F)cc1 (centres undefined),1270
15,O=C(OC1CN2CCC1CC2)c1cccc(Cl)c1 (centres undefined),1100
16,Nc1ccc([As](=O)(O)c2ccc([N+](=O)[O-])cc2)cc1,1350
17,C(Cc1nn[nH]n1)Cc1nn[nH]n1,524
18,O=[N+]([O-])c1cc([N+](=O)[O-])c(NCC2CCS(=O)(=O)C2)c([N+](=O)[O-])c1 (centres undefined),912
19,Cc1cc(-c2cccc3ccccc23)c(C)cn1.O=[N+]([O-])c1cc([N+](=O)[O-])c(O)c([N+](=O)[O-])c1,1220
20,O=[As](O)(c1ccccc1)c1ccc(O)cc1,1370

row,SMILES,cell count [cells]
1,O=[N+]([O-])c1ncn(CCn2cnc([N+](=O)[O-])n2)n1,1220
2,CC(=O)NC(SC(=S)N(C)C)C(Cl)(Cl)Cl (centres undefined),537
3,O=[N+]([O-])c1ccc(OP2(=O)COCCO2)cc1 (centres undefined),1260
4,COc1ccc(NP(C)(=O)Oc2ccccc2OC)cc1 (centres undefined),1130
5,C[C@H]1OP(=O)(Oc2ccccc2)[C@H](O)[C@H](O)[C@H]1N=[N+]=[N-] (some centres undefined),1100
6,O=P(Nc1nc2ccccc2s1)(c1ccccc1)c1ccccc1,1170
7,CN(C)CCOC(=O)C(O)(c1ccccc1)C1CCCCC1 (centres undefined),1100
8,O=P(Nc1ccccn1)(c1ccc(Br)cc1)c1ccc(Br)cc1,1550
9,COc1ccc(OP(C)(=O)Nc2cccc(Br)c2)cc1 (centres undefined),1330
10,CP(=O)(Nc1ccc(SC(F)(F)F)cc1)Oc1ccccc1 (centres undefined),554
11,Nc1cccc([As](=O)(O)c2ccccc2)c1,1340
12,CCCOc1ccc(NP(C)(=O)Oc2ccc(Cl)cc2)cc1 (centres undefined),1000
13,O=P1(Nc2ccc(Br)cn2)COc2ccccc2OC1,1090
14,O=[As](O)(c1cccs1)c1cccs1,1310
15,Cc1ccc(OCC(=O)OC2CN3CCC2CC3)cc1 (centres undefined),1130
16,O=P1(Nc2ncccn2)COc2ccccc2OC1,1100
17,CN1CCCCC1COC(=O)C1(O)c2ccccc2CCc2ccccc21 (centres undefined),949
18,COc1ccccc1OP(C)(=O)Nc1c(C)cccc1C (centres undefined),1410
19,CCOC(=O)C(CC)C1=NC(C)(C)Cc2ccccc21.O=[N+]([O-])c1cc([N+](=O)[O-])c(O)c([N+](=O)[O-])c1 (centres undefined),1140
